Reference: PMC4186791
No constants are given. Whether binding was seen depends on the method and setting. Some entries that bind do so weakly or less than the wild type.

Sequences of proteins named here, by UniProt entry; tags and fusion partners are left off. A change or cut given only in a name is not applied to a line headed by its entry. A line that says so, or that is headed by a name, gives the form on record, which may keep a tag or linker.
UniProt P83949: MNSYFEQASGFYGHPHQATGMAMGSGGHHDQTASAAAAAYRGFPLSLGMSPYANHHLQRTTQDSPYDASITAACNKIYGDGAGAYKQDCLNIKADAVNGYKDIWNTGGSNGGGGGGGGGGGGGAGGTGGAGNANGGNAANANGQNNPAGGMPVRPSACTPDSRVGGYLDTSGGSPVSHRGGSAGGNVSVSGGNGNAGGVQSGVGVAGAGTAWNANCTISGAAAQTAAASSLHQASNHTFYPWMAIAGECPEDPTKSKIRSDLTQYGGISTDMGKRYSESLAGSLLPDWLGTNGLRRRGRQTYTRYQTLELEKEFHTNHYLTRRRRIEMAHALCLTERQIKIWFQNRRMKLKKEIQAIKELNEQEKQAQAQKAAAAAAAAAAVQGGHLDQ
UbxIb Pro4 (P83949, form named): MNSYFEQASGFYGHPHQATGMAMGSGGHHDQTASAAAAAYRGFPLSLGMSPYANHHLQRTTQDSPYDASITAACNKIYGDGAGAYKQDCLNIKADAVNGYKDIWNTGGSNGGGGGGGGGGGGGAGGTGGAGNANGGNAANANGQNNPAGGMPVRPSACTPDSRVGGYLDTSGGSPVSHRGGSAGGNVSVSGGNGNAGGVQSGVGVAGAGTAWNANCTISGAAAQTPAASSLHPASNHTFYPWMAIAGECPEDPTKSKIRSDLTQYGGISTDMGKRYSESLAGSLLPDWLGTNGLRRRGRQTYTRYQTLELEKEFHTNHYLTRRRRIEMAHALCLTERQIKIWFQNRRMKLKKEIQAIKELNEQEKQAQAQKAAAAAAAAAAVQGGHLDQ
UbxIb Δ103–216 (P83949, form named): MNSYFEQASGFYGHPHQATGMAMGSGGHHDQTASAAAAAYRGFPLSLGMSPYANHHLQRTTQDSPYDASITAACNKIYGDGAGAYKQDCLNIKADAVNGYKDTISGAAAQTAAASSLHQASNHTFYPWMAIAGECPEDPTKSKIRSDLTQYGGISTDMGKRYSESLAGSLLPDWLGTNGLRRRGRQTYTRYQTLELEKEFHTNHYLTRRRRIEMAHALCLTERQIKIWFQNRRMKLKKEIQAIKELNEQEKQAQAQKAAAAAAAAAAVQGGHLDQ
UbxIb N103 Pro4 (P83949, form named): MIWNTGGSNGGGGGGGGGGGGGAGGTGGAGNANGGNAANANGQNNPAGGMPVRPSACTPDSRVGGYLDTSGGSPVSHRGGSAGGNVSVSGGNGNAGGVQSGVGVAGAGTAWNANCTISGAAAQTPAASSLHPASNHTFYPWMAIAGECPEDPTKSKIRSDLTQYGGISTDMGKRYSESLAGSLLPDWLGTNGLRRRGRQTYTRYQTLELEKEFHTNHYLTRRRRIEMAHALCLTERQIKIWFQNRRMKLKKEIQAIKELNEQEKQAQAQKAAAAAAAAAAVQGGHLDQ
UniProt P92177: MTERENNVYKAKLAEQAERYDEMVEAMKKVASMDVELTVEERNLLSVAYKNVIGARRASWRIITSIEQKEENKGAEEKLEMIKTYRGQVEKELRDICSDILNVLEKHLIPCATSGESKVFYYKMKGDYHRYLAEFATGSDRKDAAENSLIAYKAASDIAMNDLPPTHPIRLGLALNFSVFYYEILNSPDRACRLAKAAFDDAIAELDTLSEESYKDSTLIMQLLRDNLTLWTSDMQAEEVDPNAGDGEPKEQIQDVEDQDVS
UniProt Q06453: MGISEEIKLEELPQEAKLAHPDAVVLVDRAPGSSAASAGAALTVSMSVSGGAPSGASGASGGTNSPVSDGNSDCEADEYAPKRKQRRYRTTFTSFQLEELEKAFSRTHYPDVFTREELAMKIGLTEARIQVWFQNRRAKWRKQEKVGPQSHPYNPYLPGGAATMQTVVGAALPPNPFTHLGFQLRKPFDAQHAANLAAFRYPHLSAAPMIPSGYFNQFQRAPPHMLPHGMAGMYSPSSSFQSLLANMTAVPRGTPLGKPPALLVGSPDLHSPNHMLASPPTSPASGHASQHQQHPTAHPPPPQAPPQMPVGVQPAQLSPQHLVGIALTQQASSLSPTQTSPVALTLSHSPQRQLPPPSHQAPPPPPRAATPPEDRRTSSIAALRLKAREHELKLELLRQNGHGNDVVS
UniProt P51140: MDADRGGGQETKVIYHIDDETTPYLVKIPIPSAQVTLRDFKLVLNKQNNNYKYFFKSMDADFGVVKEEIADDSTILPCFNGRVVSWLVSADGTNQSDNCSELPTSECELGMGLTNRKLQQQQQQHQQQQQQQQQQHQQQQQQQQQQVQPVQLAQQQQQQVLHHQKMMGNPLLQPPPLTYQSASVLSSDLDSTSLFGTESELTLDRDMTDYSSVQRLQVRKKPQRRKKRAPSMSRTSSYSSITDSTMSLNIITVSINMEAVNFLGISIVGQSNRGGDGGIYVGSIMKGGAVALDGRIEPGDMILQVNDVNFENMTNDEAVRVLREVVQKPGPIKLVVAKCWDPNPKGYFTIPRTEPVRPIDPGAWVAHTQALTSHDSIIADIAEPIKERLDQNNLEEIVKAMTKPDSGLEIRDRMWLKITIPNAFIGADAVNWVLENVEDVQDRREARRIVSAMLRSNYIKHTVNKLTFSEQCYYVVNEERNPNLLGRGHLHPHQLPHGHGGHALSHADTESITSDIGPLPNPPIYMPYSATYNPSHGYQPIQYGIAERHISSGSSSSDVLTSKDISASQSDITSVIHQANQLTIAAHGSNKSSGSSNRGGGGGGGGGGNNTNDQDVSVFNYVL
UniProt P50887: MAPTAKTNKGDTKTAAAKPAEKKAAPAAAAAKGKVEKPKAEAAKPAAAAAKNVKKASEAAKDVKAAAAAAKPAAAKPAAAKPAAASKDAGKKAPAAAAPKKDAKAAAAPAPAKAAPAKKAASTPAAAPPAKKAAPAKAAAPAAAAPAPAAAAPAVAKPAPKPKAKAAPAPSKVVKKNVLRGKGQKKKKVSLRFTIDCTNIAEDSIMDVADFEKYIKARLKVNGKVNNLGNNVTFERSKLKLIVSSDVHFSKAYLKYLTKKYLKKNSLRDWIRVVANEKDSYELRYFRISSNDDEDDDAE

Columns and labels:
Experiment in all cases: two-hybrid; LexA-Ubx variant (pLexA) and B42-partner (pB42) co-transformed into S. cerevisiae EGY48 carrying p8op-LacZ; blue/white colonies on X-gal and liquid β-galactosidase (ONPG) assay after galactose induction at 30°C, reported in Miller units
[1] = biological target: UbxIb Pro4 (Drosophila melanogaster) (UniProt P83949)
[2] = biological target: UbxIb Δ103–216 (Drosophila melanogaster) (UniProt P83949)
[3] = biological target: UbxIb N103 Pro4 (Drosophila melanogaster) (UniProt P83949)

binding [1]	binding [2]	binding [3]	Substance
binds	–	–	14-3-3ε (from UniProt P92177 1-262)
binds	binds	binds	Aristaless (from UniProt Q06453 1-408)
binds	–	–	DNA/RNA binding 3-helical bundle domain from Al (amino acids 81–142) (from UniProt Q06453 81-142) (domain or fragment)
binds	–	–	Dishevelled (from UniProt P51140 1-623)
binds	–	–	Ribosomal protein L22 (from UniProt P50887 1-299)
